In PMC9231786:
Results are given in words; binding and its absence hold for the method and conditions named.

Amino acid sequences for entries named in this document (tags omitted). Residues count along the entry.
UniProt Q92692, residues 32-360: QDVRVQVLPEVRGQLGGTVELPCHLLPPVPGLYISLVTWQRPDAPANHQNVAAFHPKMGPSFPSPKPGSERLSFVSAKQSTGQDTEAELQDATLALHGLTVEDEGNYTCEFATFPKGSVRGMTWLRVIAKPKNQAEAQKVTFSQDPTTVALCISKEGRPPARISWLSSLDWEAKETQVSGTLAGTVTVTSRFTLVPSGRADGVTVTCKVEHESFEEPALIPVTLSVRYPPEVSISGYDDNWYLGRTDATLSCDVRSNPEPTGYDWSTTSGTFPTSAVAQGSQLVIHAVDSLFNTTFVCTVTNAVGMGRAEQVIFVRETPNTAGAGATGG
UniProt P43626, residues 22-245: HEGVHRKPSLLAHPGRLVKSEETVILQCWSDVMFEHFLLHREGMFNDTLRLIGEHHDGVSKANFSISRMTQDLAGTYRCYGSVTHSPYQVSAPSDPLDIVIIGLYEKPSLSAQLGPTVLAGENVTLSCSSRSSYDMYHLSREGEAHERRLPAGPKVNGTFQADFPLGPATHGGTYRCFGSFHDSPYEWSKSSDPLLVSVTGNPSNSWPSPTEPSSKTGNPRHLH
UniProt P43628, residues 22-245: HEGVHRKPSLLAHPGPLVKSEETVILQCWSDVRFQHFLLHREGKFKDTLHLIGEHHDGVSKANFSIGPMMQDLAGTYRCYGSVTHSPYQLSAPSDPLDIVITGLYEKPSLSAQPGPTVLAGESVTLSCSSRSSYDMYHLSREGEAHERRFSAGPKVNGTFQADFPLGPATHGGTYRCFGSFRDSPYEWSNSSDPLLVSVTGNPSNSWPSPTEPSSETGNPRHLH
UniProt Q99706, residues 22-242: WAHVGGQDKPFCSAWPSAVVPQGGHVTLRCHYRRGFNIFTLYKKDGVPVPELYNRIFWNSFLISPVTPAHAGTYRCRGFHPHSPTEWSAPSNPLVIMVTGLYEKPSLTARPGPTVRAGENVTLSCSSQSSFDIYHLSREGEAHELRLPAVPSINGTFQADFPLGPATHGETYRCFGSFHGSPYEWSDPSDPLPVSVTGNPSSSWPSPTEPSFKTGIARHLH
UniProt P43629, residues 22-340: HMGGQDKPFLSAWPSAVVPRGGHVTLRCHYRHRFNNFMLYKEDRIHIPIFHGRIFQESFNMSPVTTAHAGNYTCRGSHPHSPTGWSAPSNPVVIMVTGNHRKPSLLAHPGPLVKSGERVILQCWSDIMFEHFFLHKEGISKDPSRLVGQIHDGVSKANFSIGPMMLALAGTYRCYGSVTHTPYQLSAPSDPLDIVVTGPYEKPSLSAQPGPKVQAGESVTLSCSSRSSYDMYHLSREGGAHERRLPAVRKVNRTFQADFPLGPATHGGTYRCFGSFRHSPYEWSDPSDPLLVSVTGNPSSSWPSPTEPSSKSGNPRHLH

Legend:
[1] = target: T1, biotinylated CD155 (PVR, poliovirus receptor) (UniProt P15151); assay: flow cytometry on protein-coated beads; streptavidin Dynabeads coated with biotinylated CD155, CD112 or biotin (200 pmol protein/mg beads); Fc constructs in solution at 25 μg/ml in PBS, 15 min at 4°C; detected with PE-labelled F(ab)2 goat-anti-human IgG; read-out MFI; both purified
T1 sequence (chain, biotin (biotinylated; site not stated)): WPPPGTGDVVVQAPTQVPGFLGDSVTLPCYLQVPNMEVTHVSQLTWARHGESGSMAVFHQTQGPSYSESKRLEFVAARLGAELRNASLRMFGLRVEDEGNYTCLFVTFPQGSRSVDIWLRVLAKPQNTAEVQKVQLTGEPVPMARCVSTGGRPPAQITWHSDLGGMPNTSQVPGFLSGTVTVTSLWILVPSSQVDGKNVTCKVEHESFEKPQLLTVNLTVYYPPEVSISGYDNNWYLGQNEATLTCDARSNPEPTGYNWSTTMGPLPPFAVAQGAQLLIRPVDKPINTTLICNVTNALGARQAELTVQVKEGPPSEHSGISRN

[2] = target: biotinylated CD112 (Nectin-2) (UniProt Q92692); assay: as above

KIR2DL1-Fc construct (recombinant human) (from UniProt P43626 22-245) (Fc fusion)
binding [1]: no binding (tested: 25 μg/ml) | binding [2]: no binding (tested: 25 μg/ml)

KIR2DL3-Fc construct (recombinant human) (from UniProt P43628 22-245) (Fc fusion)
binding [1]: no binding (tested: 25 μg/ml) | binding [2]: no binding (tested: 25 μg/ml)

KIR2DL4-Fc construct (recombinant human) (from UniProt Q99706 22-242) (Fc fusion)
binding [1]: no binding (tested: 25 μg/ml) | binding [2]: no binding (tested: 25 μg/ml)

KIR3DL1-Fc construct (recombinant human) (from UniProt P43629 22-340) (Fc fusion)
binding [1]: no binding (tested: 25 μg/ml) | binding [2]: no binding (tested: 25 μg/ml)
